This passage reports binding results from PMC5493781.

The chains behind the UniProt entries cited, without tags or fusion partners.
UniProt Q5VT06: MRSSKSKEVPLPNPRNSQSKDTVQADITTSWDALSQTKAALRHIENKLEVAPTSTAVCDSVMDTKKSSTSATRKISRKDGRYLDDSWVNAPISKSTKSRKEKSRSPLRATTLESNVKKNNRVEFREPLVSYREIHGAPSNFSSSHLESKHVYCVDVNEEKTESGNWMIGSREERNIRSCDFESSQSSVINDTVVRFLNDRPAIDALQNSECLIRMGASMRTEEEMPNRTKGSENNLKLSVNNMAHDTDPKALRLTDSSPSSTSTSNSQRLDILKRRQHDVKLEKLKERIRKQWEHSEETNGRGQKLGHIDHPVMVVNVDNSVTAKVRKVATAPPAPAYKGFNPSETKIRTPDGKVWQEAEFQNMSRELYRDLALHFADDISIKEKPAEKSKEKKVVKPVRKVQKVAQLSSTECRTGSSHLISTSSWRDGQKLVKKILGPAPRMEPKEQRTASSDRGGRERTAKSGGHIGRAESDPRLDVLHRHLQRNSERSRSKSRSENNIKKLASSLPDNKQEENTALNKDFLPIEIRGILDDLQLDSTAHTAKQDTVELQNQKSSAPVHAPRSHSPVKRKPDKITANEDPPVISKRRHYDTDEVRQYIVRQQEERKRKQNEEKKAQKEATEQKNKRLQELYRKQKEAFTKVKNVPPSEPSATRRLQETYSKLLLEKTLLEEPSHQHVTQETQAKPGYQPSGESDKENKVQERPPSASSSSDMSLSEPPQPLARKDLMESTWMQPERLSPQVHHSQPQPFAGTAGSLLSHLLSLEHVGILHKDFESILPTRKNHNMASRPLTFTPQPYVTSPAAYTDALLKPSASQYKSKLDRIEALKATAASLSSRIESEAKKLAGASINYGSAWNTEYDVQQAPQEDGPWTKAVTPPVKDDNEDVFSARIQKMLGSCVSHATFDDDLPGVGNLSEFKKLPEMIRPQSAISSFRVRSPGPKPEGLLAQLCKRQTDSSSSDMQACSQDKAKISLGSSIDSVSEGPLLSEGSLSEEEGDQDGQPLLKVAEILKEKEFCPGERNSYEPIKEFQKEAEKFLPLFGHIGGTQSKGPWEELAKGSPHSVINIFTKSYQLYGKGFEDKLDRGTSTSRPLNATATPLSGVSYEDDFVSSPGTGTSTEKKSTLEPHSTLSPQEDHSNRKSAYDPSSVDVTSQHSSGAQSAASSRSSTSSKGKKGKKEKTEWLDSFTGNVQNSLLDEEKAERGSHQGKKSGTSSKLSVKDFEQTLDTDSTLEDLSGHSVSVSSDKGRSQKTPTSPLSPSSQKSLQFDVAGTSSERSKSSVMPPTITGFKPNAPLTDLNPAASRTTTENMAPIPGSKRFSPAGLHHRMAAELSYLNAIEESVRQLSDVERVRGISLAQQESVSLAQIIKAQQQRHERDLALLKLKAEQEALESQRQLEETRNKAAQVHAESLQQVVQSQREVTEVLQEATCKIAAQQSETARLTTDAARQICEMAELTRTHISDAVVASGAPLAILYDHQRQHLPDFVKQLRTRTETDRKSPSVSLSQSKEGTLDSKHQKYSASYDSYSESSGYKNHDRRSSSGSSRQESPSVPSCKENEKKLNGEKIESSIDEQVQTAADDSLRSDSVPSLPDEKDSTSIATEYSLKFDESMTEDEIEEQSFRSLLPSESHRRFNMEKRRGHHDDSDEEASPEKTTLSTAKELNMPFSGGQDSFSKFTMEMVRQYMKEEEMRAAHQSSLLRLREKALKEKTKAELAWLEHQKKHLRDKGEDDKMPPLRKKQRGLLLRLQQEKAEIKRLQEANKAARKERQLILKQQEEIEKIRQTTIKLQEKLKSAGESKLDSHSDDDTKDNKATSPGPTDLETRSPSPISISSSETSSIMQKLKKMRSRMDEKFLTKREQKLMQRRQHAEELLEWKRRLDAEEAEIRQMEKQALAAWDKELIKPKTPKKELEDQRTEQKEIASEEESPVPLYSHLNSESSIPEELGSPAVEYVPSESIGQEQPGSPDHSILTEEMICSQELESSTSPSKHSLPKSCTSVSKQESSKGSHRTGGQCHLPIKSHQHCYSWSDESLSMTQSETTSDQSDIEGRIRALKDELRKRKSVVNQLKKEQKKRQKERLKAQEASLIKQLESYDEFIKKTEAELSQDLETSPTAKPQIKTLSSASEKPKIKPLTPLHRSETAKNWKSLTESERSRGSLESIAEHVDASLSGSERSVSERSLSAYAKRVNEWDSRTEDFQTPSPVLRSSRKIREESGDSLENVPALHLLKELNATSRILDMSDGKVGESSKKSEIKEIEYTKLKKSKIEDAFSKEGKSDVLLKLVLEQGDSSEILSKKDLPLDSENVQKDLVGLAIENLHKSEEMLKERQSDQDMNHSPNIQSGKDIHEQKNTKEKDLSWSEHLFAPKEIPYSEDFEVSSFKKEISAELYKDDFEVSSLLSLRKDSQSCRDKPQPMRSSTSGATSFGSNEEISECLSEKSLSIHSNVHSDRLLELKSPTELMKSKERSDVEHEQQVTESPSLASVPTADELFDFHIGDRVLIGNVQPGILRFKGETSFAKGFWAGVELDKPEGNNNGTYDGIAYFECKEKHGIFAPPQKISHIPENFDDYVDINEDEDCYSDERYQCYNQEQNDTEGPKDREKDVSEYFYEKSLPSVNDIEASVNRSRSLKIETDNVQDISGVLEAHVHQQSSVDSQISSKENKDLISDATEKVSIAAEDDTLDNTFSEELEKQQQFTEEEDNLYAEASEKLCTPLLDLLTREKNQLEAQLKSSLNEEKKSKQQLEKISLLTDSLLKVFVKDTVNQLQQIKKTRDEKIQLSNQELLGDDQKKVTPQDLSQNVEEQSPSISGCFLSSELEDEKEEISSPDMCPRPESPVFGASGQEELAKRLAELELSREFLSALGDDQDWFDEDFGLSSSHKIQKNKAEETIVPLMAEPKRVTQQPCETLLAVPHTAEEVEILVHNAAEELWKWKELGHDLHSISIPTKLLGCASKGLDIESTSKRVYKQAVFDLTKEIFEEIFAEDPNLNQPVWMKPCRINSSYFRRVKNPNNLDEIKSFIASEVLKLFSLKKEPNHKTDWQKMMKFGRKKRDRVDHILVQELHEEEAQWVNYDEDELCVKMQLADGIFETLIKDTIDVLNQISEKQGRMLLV

Results are given in words; binding and its absence hold for the method and conditions named. Binding seen in cells or lysates may run through a third protein. Some binding calls cover weakened binding; strength is not graded here. Where a sequence is shown, tags or fusion partners need not be part of it.

The target of one assay is T1, GFP-CEP19 R82* mutant (UniProt Q96LK0).
T1 sequence: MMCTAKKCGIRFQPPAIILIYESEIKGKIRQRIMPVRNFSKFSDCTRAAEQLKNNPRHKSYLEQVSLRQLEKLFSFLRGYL
Put plainly: co-IP; GFP fusions of CEP19 precipitated from transfected HEK 293 lysate with goat GFP antibody on Protein G Sepharose, 4 °C; 50 mM HEPES pH 8, 100 mM KCl, 2 mM EDTA, 10% glycerol, 0.1% NP-40, 1 mM DTT; blots for endogenous proteins.

Another assay has as its target T2, GFP-CEP19 (UniProt Q96LK0).
T2 sequence: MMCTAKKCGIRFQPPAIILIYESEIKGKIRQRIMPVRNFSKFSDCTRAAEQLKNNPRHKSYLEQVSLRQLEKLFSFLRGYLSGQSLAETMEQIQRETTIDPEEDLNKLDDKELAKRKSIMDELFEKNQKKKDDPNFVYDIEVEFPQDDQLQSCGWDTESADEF
Described as above.

Turning to CEP350 (from UniProt Q5VT06 1-3117), the binding result with GFP-CEP19 R82* mutant is listed as “no binding”; with GFP-CEP19 it was “binds”.

B1: FGFR1OP (FOP) (protein, UniProt O95684 1-399)
chain: MAATAAAVVAEEDTELRDLLVQTLENSGVLNRIKAELRAAVFLALEEQEKVENKTPLVNESLKKFLNTKDGRLVASLVAEFLQFFNLDFTLAVFQPETSTLQGLEGRENLARDLGIIEAEGTVGGPLLLEVIRRCQQKEKGPTTGEGALDLSDVHSPPKSPEGKTSAQTTPSKIPRYKGQGKKKTSGQKAGDKKANDEANQSDTSVSLSEPKSKSSLHLLSHETKIGSFLSNRTLDGKDKAGLCPDEDDMEGDSFFDDPIPKPEKTYGLRKEPRKQAGSLASLSDAPPLKSGLSSLAGAPSLKDSESKRGNTVLKDLKLISDKIGSLGLGTGEDDDYVDDFNSTSHRSEKSEISIGEEIEEDLSVEIDDINTSDKLDDLTQDLTVSQLSDVADYLEDVA
For the molecule B1, the binding entry in the assay with GFP-CEP19 R82* mutant is given as “no binding”; with GFP-CEP19 it was “binds”.
